According to paper PMC12431657, “Discovery and mechanistic insights of dibenzoylmethane as a broad spectrum inhibitor of coronavirus” (PLOS Pathogens, 2025):
What follows is the remainder of the data, with few or none of the strong results.

Tests used:
HCoV-229E = test system: HCoV-229E; parameters: species or system Huh-7; HTS, protection from HCoV-229E induced cell death, luminescent cell viability (CellCounting-Lite 2.0), inhibition rate; conditions: 24 h post infection, 1 h compound pre-incubation; 10 µM; inhibitor
HCoV-OC43 = test system: HCoV-OC43; parameters: species or system RD; HTS, protection from HCoV-OC43 induced cell death, luminescent cell viability (CellCounting-Lite 2.0), inhibition rate; conditions: 24 h post infection, 1 h compound pre-incubation; 10 µM; inhibitor

Row | Compound | 229E Inhibition rate (HCoV-229E) [%] | OC43 Inhibition rate (HCoV-OC43) [%]
1 | CN[C@@H]1C[C@H]2O[C@@](C)([C@@H]1OC)n1c3ccccc3c3c4c(c5c6ccccc6n2c5c31)C(=O)NC4 [Staurosporine] | 11.8 | -2.4
2 | NCCCC(=O)O [γ-Aminobutyric acid] | 12.4 | 3.9
